Data as given in PubChem BioAssay AID1259254 (NCATS, 2017)
Shown is a random part of about 59,000 reagents tested. About 1,550 of all reagents (2.6%) were called active. 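G2 share is only a proxy for re-replication; each gene was hit by three separate siRNAs, and active genes were retested.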 Reagents against one gene are numbered here. Not all columns of the deposit are shown. The record does not give: the amount of reagent.

- Purpose: 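Gene knock-downs that lead to re-replication, shown by excess G2 DNA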 (primary screen)
- Cells: human HCT116 colorectal cancer cells
- Reagents: single siRNA against human genes
- Timing: 3 days
- Detection: 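Nuclei stained with Hoechst and imaged; cell-cycle phase assigned by DNA content; G2 share scaled per plate, non-targeting siRNA 0%, GMNN siRNA 100%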
- Reading the numbers: G2 robust z-score: higher = more G2 cells, more excess DNA replication
- Active means: 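An siRNA counts as active if its G2 robust z-score lies at least 5 MADs above the screen median; here such calls match roughly 38% of GMNN control or more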

G2 robust z-score, by target gene and reagent
SYT12 (GeneID 91683): #1 0.365 inactive; #2 4.69 inactive; #3 0.04 inactive
LOC646034 (retired record) (GeneID 646034): #1 -0.483 inactive; #2 2.52 inactive; #3 0.404 inactive
EEF1G (GeneID 1937): #1 1.97 inactive; #2 -0.341 inactive; #3 1.51 inactive
DHX29 (GeneID 54505): #1 -0.108 inactive; #2 1.18 inactive; #3 0.494 inactive
VASH1 (GeneID 22846): #1 -0.64 inactive; #2 2.51 inactive; #3 4.8 inactive
OR4N5 (GeneID 390437): #1 -0.742 inactive; #2 0.0426 inactive; #3 -0.691 inactive
COX16 (GeneID 51241): #1 -0.197 inactive; #2 -0.0184 inactive; #3 2.38 inactive
IDNK (GeneID 414328): #1 -0.758 inactive; #2 -0.278 inactive; #3 -0.728 inactive
STK38 (GeneID 11329): #1 0.168 inactive; #2 -0.947 inactive; #3 -0.596 inactive
NDUFAF8 (GeneID 284184): #1 2.98 inactive; #2 0.147 inactive; #3 -0.377 inactive
RAD51-AS1 (GeneID 100505648): #1 -0.242 inactive; #2 1.59 inactive; #3 -0.634 inactive
MBD3L2 (GeneID 125997): #1 -0.405 inactive; #2 -0.513 inactive; #3 -0.522 inactive
CEBPD (GeneID 1052): #1 -0.75 inactive; #2 -1.58 inactive; #3 -1.1 inactive
TAFA3 (GeneID 284467): #1 -0.201 inactive; #2 1.25 inactive; #3 -0.63 inactive
ATRIP (GeneID 84126): #1 0.793 inactive; #2 0.0827 inactive; #3 -0.314 inactive
MRPL49 (GeneID 740): #1 0.949 inactive; #2 0.775 inactive; #3 0.0992 inactive
HCST (GeneID 10870): #1 0.654 inactive; #2 -0.619 inactive; #3 0.0396 inactive
RPS27 (GeneID 6232): #1 2.89 inactive; #2 2.35 inactive; #3 3.47 inactive
RUNDC1 (GeneID 146923): #1 -0.000571 inactive; #2 0.621 inactive; #3 -0.769 inactive
TFCP2L1 (GeneID 29842): #1 1.93 inactive; #2 -0.492 inactive; #3 0.719 inactive
FYB1 (GeneID 2533): #1 -0.533 inactive; #2 -0.526 inactive; #3 -0.513 inactive
TXNL4A (GeneID 10907): #1 0.424 inactive; #2 0.256 inactive; #3 0.371 inactive
TOPBP1 (GeneID 11073): #1 2.27 inactive; #2 -0.646 inactive; #3 -0.741 inactive

Already shown: entries from further up.
G2 robust z-score, by target gene and reagent
RPS27 (GeneID 6232): #2 2.35 inactive; #3 3.47 inactive
RUNDC1 (GeneID 146923): #1 -0.000571 inactive; #2 0.621 inactive; #3 -0.769 inactive
TFCP2L1 (GeneID 29842): #1 1.93 inactive; #2 -0.492 inactive; #3 0.719 inactive
FYB1 (GeneID 2533): #1 -0.533 inactive
